These are yes or no findings as the source states them, for the method shown. Binding seen in cells or lysates may run through a third protein. Here binding means that the protein was enriched with, or labelled near, the bait; the list need not be complete.
Target: tumor suppressor p53-binding protein 1 (53BP1), endogenous (human (endogenous in U2OS)) (UniProt Q12888)
Assay: affinity purification with mass spectrometry; 53BP1 co-IP complex from human cells after nocodazole (NOC) synchronization, mass spectroscopy screening

Sequences of proteins named here, by UniProt entry; tags and fusion partners are left off.
UniProt Q12888: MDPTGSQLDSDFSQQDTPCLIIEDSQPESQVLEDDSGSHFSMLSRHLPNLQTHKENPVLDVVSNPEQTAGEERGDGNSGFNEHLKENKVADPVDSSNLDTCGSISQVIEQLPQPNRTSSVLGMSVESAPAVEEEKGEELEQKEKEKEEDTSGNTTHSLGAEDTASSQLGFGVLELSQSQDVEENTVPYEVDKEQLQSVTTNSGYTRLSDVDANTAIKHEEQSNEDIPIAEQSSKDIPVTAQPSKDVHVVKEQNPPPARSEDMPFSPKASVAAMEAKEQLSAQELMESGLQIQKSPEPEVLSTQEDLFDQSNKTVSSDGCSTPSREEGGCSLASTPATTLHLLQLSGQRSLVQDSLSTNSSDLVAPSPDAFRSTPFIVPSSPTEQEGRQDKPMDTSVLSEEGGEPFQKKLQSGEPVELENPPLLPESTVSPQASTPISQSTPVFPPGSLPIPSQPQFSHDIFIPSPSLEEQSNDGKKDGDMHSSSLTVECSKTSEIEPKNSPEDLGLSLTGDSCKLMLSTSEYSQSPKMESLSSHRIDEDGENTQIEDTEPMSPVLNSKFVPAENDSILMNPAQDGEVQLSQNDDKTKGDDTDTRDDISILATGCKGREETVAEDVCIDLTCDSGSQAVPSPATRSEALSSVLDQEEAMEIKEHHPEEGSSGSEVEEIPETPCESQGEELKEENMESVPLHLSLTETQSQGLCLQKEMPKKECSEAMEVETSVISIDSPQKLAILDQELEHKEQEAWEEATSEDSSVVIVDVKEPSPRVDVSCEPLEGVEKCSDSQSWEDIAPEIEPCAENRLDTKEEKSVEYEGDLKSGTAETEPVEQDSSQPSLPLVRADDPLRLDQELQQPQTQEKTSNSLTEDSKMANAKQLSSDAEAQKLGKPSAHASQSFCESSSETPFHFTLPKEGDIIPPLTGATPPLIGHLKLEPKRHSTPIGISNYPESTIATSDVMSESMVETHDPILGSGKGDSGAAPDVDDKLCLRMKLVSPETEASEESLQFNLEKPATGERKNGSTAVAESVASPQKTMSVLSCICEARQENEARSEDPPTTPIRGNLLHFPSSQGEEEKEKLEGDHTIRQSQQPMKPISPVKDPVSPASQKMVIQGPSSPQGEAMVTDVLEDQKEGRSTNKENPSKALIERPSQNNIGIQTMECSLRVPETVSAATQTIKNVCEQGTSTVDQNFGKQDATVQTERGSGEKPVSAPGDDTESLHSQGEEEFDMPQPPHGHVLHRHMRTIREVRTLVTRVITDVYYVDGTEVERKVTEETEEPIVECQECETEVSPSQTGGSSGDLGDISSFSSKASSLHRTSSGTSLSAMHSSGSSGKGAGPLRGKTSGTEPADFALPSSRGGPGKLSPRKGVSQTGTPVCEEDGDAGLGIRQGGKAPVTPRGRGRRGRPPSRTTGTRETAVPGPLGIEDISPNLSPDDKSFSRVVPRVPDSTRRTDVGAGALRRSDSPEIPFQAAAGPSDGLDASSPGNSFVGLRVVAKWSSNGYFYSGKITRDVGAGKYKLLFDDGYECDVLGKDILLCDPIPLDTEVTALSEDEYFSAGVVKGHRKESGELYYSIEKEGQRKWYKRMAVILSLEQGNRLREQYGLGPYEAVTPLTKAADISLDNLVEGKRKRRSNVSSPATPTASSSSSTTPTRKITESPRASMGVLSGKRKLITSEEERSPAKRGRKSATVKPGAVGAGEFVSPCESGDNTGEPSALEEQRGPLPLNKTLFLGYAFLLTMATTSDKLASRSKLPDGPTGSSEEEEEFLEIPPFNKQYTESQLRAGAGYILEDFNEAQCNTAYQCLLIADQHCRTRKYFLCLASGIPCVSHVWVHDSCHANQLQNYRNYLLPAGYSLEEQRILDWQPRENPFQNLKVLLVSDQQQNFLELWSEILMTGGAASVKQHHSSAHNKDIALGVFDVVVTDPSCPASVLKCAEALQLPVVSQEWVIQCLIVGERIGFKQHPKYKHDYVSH

binding: binds
B1: mitotic centromere-associated kinesin (MCAK), endogenous (protein, UniProt Q99661 1-725)
chain: MAMDSSLQARLFPGLAIKIQRSNGLIHSANVRTVNLEKSCVSVEWAEGGATKGKEIDFDDVAAINPELLQLLPLHPKDNLPLQENVTIQKQKRRSVNSKIPAPKESLRSRSTRMSTVSELRITAQENDMEVELPAAANSRKQFSVPPAPTRPSCPAVAEIPLRMVSEEMEEQVHSIRGSSSANPVNSVRRKSCLVKEVEKMKNKREEKKAQNSEMRMKRAQEYDSSFPNWEFARMIKEFRATLECHPLTMTDPIEEHRICVCVRKRPLNKQELAKKEIDVISIPSKCLLLVHEPKLKVDLTKYLENQAFCFDFAFDETASNEVVYRFTARPLVQTIFEGGKATCFAYGQTGSGKTHTMGGDLSGKAQNASKGIYAMASRDVFLLKNQPCYRKLGLEVYVTFFEIYNGKLFDLLNKKAKLRVLEDGKQQVQVVGLQEHLVNSADDVIKMIDMGSACRTSGQTFANSNSSRSHACFQIILRAKGRMHGKFSLVDLAGNERGADTSSADRQTRMEGAEINKSLLALKECIRALGQNKAHTPFRESKLTQVLRDSFIGENSRTCMIATISPGISSCEYTLNTLRYADRVKELSPHSGPSGEQLIQMETEEMEACSNGALIPGNLSKEEEELSSQMSSFNEAMTQIRELEEKAMEELKEIIQQGPDWLELSEMTEQPDYDLETFVNKAESALAQQAKHFSALRDVIKALRLAMQLEEQASRQISSKKRPQ

Source: paper PMC5564716
